Among the data in article PMC4947186 are binding values, retold here.

These are yes or no findings as the source states them, for the method shown. In cells and extracts the contact can be indirect. Binding calls can cover weak binding; strength is not graded here. Where a sequence is shown, tags or fusion partners need not be part of it.

In this test the target is GST-RanBP2 C-terminal region (cyclophilin-like domain). Nature of the test: pull-down; GST fusions of RanBP2 fragments incubated with flag-SHP protein; bound flag-SHP detected by IB with M2 antibody.

B1: flag-SHP protein used in the GST pull-down (protein, UniProt Q62227 1-260)
chain: MSSGQSGVCPCQGSAGRPTILYALLSPSPRTRPVAPASHSHCLCQQQRPVRLCAPHRTCREALDVLAKTVAFLRNLPSFCHLPHEDQRRLLECCWGPLFLLGLAQDAVTFEVAEAPVPSILKKILLEEASSGTQGAQPSDRPQPSLAAVQWLQRCLESFWSLELGPKEYAYLKGTILFNPDVPGLRASCHIAHLQQEAHWALCEVLEPWYPASQGRLARILLMASTLKNIPGTLLVDLFFRPIMGDVDITELLEDMLLLR
Take B1: the binding entry is reported as “binds”.
